{
  "source": "patent US20210308089A1",
  "about": "“METHODS OF TREATING AND/OR PREVENTING VIRAL INFECTIONS AND/OR DISEASES CAUSED BY VIRUSES IN A SUBJECT IN NEED THEREOF” (priority 2020, published 2021)",
  "key": {"[1]": {"system": "statin-treated hypertriglyceridemic patients with cardiovascular disease or at high risk for cardiovascular disease", "experiment": "REDUCE-IT: time to first occurrence of adjudicated cardiovascular events (primary, secondary, tertiary endpoints), AMR101 4 g/day vs placebo", "format": "in vivo, human", "from_the_text": "The following study, also referred to as the REDUCE-IT clinical trial, was a large cardiovascular (CV) outcome trial designed to assess CV risk reduction benefit of AMR101 treatment (commercially known as VASCEPA®) versus placebo on the 5-point primary composite endpoint: CV death, nonfatal stroke, nonfatal myocardial infarction (MI), coronary revascularizations, or unstable angina requiring hospitalization.\nA multi-center, prospective, randomized, double-blind, placebo-controlled, parallel-group study was performed to evaluate the effect of AMR101 (4 g per day) on cardiovascular health and mortality in hypertriglyceridemic patients with cardiovascular disease or at high risk for cardiovascular disease. The intended expanded indication of the study was treatment with AMR101 as an add-on to statin therapy to reduce the risk of cardiovascular events in patients with clinical cardiovascular disease or with multiple risk factors for cardiovascular disease.\nThe primary objective of this study was, in patients at LDL-C goal while on statin therapy, with established cardiovascular disease (CVD) or at high risk for CVD, and hypertriglyceridemia (e.g., fasting triglycerides(TG) ≥200 mg/dL and <500 mg/dL), to evaluate the effect of AMR101 4 g daily on time from randomization to first occurrence of any component of the composite of the following major CV events: CV death; nonfatal MI (including silent MI); electrocardiograms (ECGs) were performed annually for the detection of silent MIs); nonfatal stroke; coronary revascularization; and unstable angina determined to be caused by myocardial ischemia by invasive/non-invasive testing and requiring emergent hospitalization.\nThe key secondary objective of this study was to evaluate the effect of AMR101 4 g daily on the time from randomization to the first occurrence of the composite of following major CV events: CV death, nonfatal MI (including silent MI), and nonfatal stroke.\nOther secondary objectives for this study were to evaluate the effect of therapy on time from randomization to the first occurrence of the following individual or composite endpoints: composite of CV death or nonfatal MI (including silent MI); fatal or nonfatal MI (including silent MI); non-elective coronary revascularization represented as the composite of emergent or urgent classifications; CV death; unstable angina determined to be caused by myocardial ischemia by invasive/non-invasive testing and requiring emergent hospitalization; fatal or nonfatal stroke; composite of total mortality, nonfatal MI (including silent MI), or nonfatal stroke; and total mortality.\nPrimary Efficacy Endpoint: The primary efficacy endpoint was time from randomization to the first occurrence of the composite of the following clinical events: CV death; nonfatal MI (including silent MI; ECGs were performed annually for the detection of silent MIs); nonfatal stroke; coronary revascularization; and unstable angina determined to be caused by myocardial ischemia by invasive/non-invasive testing and requiring emergent hospitalization. The first occurrence of any of these major adverse vascular events during the follow-up period of the study was included in the incidence.\nSecondary Efficacy Endpoints: The key secondary efficacy endpoint was the time from randomization to the first occurrence of the composite of CV death, nonfatal MI (including silent MI), or nonfatal stroke. […]"}, "[2]": {"system": "patients of the REDUCE-IT and earlier EPA placebo-controlled trials", "experiment": "Example 3: adverse events by risk ratio, icosapent ethyl vs placebo (candidate categories; infectious disease terms of interest)", "details": "R-I"}},
  "note": "For at least one compound, name, drawing or mass did not settle the structure.",
  "data": [
    {"compound": "CC/C=C\\C/C=C\\C/C=C\\C/C=C\\C/C=C\\CCCC(=O)OCC", "note": "[icosapent ethyl, eicosapentaenoic acid ethyl ester]", "values": [
      {"measurement": "Influence of attained triglyceride level at 1 year on efficacy vs placebo (primary or key secondary endpoint)", "setting": "[1]; 150 mg/dL or higher vs below 150 mg/dL at 1 year", "result": "no influence"},
      {"measurement": "Amputation for PVD: n/N", "setting": "[1]; REDUCE-IT ITT, 4 g/day", "result": "22/4089"},
      {"measurement": "Cardiac arrest: n/N", "setting": "[1]; REDUCE-IT ITT, 4 g/day", "result": "22/4089"},
      {"measurement": "Cardiac arrhythmias requiring hospitalization of ≥24 hours: n/N", "setting": "[1]; REDUCE-IT ITT, 4 g/day", "result": "188/4089"},
      {"measurement": "Carotid revascularization: n/N", "setting": "[1]; REDUCE-IT ITT, 4 g/day", "result": "31/4089"},
      {"measurement": "Coronary revascularization: n/N", "setting": "[1]; REDUCE-IT ITT, 4 g/day", "result": "376/4089"},
      {"measurement": "Elective revascularization: n/N", "setting": "[1]; REDUCE-IT ITT, 4 g/day", "result": "194/4089"},
      {"measurement": "Emergent revascularization: n/N", "setting": "[1]; REDUCE-IT ITT, 4 g/day", "result": "41/4089"},
      {"measurement": "Hemorrhagic stroke: n/N", "setting": "[1]; REDUCE-IT ITT, 4 g/day", "result": "13/4089"},
      {"measurement": "Ischemic stroke: n/N", "setting": "[1]; REDUCE-IT ITT, 4 g/day", "result": "80/4089"},
      {"measurement": "New heart failure requiring hospitalization: n/N", "setting": "[1]; REDUCE-IT ITT, 4 g/day", "result": "141/4089"},
      {"measurement": "New heart failure: n/N", "setting": "[1]; REDUCE-IT ITT, 4 g/day", "result": "169/4089"},
      {"measurement": "Primary endpoint in patients with diabetes at baseline: n/N", "setting": "[1]; REDUCE-IT ITT, 4 g/day", "result": "433/2394"},
      {"measurement": "Salvage revascularization: n/N", "setting": "[1]; REDUCE-IT ITT, 4 g/day", "result": "0/4089"},
      {"measurement": "Transient ischemic attack: n/N", "setting": "[1]; REDUCE-IT ITT, 4 g/day", "result": "64/4089"},
      {"measurement": "Urgent revascularization: n/N", "setting": "[1]; REDUCE-IT ITT, 4 g/day", "result": "181/4089"},
      {"measurement": "New onset of diabetes: n/N", "setting": "[1]; patients with diabetes at baseline excluded, 4 g/day", "result": "65/1695"},
      {"measurement": "Influence of baseline triglyceride levels on the primary or key secondary efficacy endpoints", "setting": "[1]; ≥150 vs <150 mg/dL or ≥200 vs <200 mg/dL, prespecified subgroups", "result": "no influence"},
      {"measurement": "ARR: Viral infection (AE table)", "setting": "[2]", "result": "−0.1", "unit": "%"},
      {"measurement": "NNT: Viral infection (AE table)", "setting": "[2]", "result": 819}
    ]}
  ]
}
